From PMC12514821
These are yes or no findings as the source states them, for the method shown. In cells and extracts the contact can be indirect. Here binding means that the protein was enriched with, or labelled near, the bait; the list need not be complete.

Chains of the proteins cited; added tags and fusions are not shown.
UniProt P11142: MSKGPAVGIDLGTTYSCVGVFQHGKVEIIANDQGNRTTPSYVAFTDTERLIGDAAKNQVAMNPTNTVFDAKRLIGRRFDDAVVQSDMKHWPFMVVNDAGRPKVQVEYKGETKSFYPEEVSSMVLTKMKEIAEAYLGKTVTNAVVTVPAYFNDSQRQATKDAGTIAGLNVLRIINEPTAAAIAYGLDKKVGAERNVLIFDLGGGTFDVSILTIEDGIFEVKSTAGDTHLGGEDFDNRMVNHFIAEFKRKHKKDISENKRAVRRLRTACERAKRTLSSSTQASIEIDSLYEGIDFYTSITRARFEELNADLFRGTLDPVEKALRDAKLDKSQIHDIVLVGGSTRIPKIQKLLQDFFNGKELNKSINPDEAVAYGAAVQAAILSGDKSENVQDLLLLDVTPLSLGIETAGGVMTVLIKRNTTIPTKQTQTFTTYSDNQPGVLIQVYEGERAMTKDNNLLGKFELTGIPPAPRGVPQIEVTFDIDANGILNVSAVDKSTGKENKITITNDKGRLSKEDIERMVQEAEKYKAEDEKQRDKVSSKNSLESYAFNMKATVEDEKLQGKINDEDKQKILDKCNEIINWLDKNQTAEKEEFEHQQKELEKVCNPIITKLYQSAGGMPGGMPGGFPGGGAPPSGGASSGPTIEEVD

Target: T1, SFB-PDLIM4 (330AA) (UniProt P50479)
T1 sequence: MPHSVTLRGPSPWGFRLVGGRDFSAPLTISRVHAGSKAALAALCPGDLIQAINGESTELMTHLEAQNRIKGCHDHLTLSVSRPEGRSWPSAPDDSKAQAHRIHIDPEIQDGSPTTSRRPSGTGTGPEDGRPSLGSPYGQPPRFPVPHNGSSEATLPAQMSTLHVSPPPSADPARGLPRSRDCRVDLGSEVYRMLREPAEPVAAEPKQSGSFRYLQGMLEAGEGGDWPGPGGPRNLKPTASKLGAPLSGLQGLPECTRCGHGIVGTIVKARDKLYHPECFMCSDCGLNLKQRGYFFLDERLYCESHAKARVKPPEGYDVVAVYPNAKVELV
Test: affinity purification with mass spectrometry; co-immunoprecipitation of PDLIM4 from HEK-293T cells and mass spectrometry; hits cross-referenced with BioGRID

HSC70 (endogenous) (from UniProt P11142 1-646)
binding: binds
